Measurements: patent US20030232360

Sequences of proteins named here, by UniProt entry; tags and fusion partners are left off. Residues count along the entry.
UniProt Q15717, 2-326: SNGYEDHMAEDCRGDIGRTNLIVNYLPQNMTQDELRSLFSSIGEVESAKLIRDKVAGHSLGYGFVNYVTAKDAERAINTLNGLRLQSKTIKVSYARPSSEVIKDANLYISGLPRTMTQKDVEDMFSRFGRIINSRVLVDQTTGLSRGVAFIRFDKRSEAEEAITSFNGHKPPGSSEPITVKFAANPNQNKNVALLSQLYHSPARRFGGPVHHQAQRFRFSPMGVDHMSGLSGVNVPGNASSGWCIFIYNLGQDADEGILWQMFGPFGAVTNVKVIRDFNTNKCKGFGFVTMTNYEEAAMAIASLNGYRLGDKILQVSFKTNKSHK

Target: HuR (HuA, ELAV family), endogenous in HeLa S100 (UniProt Q15717)
Experiment: competition with a labelled probe
Details: non-specific competitor; competition described as specific to ARE RNA; protein in an extract

GUCACGUGUCACC [Non-specific competitor RNA]
binding result: no binding

At least one result comes from cells or an extract, where the contact may be indirect. Negatives hold for the conditions tested.
